# Tests used:
# Protein sequences, listed by entry. Tags and fused reporters are not part of them. Lines headed by an entry give the natural chain unless they say otherwise; changes in a name come on top.
# UniProt Q9SYS6: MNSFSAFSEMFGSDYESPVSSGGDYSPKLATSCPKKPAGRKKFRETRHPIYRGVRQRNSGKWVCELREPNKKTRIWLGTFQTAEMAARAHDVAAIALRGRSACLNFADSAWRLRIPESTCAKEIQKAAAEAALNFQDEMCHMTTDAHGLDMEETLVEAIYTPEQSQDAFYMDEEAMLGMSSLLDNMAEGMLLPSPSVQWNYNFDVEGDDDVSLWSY
# UniProt Q9M0L0: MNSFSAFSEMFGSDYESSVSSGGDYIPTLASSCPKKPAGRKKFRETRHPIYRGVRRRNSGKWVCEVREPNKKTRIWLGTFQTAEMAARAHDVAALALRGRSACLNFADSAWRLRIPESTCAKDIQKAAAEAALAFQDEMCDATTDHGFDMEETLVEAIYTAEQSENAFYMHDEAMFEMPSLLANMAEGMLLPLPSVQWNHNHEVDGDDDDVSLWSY
# [1] = target: CBF2 (Arabidopsis thaliana) (UniProt Q9SYS6); test: one hybrid; conditions: activates CRT/DRE-lacZ reporters in yeast; protein in cells; protein details: expressed in yeast from pDB20.1 (ADC1 promoter); label: 32P end-filled (probe)
# [2] = target: CBF3 (Arabidopsis thaliana) (UniProt Q9M0L0); test: one hybrid; conditions: activates CRT/DRE-lacZ reporters in yeast; protein in cells; protein details: expressed in yeast from pDB20.1 (ADC1 promoter); label: 32P end-filled (probe)
sequence,measurement,setting,value
GATCATTTCATGGCCGACCTGCTTTTT (double strand) [MT50 COR15a C-repeat/DRE],activity on this sequence,[1],active
same,activity on this sequence,[2],active

# — patent US6417428
